Laboratory results taken from publication PMC7819943, “Rice protein-binding microarrays: a tool to detect cis-acting elements near promoter regions in rice”.
This is one part of the list.

The sequences below were run against T1, OsSMF1 (Oryza sativa, UniProt Q6ZLB0 1-436) (assay: protein-binding microarray (RPBM); PBS, 2% BSA, 51.3 ng/ul salmon testes DNA, 50 uM zinc acetate, 200 nM TF, 25 C, 1 h; high values mean tight binding). Conditions: protein: recombinant; tags: N-terminal polyhistidine and DsRed monomer fusion (pET32a); chain copies: 2; label: CyDye5-dUTP incorporated in the synthesized complementary strand; 3' TTTTT single-stranded linker to array surface; dsDNA, one strand shown.
T1 sequence: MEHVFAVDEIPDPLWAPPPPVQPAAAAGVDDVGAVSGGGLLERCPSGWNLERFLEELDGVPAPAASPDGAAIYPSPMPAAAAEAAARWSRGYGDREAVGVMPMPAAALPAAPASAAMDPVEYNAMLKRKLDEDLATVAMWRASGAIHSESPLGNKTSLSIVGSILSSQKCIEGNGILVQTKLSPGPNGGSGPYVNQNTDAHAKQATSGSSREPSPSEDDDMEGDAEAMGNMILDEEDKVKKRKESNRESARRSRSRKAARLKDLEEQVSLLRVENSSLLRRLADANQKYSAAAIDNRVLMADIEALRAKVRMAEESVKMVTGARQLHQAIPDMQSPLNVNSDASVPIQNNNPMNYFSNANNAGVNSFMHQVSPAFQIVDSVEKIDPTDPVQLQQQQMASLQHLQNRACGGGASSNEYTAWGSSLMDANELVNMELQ
In short: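 In PBS with 2% BSA, salmon testes DNA and 50 µM zinc acetate, 200 nM protein was incubated on a custom Agilent array at 25 °C for 1 h and then washed off. The array had been made double-stranded by primer extension with Cy5-dUTP and blocked with 2% BSA. The proteins were transcription factors fused N-terminally to polyhistidine and DsRed, expressed in E. coli BL21-CodonPlus and purified on Ni–NTA. The binding signal is per-feature fluorescence intensity (arbitrary units) from an Axon 4000B scanner.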

Row | Sequence | binding signal
1 | TCCAAAATTCCATTAAATCAGGTGAATGACTAAAGTGTAACGGAGTCACCTAGTGCAG | 3290 fluorescence intensity (a.u.)
2 | CAGGGAGCATTGAGATTCACTTTGTCACGATGGTAATATACGGAGTCACCTAGTGCAG | 22600 fluorescence intensity (a.u.)
3 | AACCAACCACGATGACAATCCCATATCAACCCTCCCAACACGGAGTCACCTAGTGCAG | 3530 fluorescence intensity (a.u.)
4 | CGCAGCCCGAGCCCGCCGTATTCCACGTCGACGCTGTCGTCGGAGTCACCTAGTGCAG | 5720 fluorescence intensity (a.u.)
5 | TTCAAGATCCGATATCAAGTGACGTGGTCGGCGCGATCTGCGGAGTCACCTAGTGCAG | 8530 fluorescence intensity (a.u.)
6 | GTTCAGATTTGTTATACTAGAATGTGTCACGCCAGTTTTACGGAGTCACCTAGTGCAG | 4450 fluorescence intensity (a.u.)
7 | AAAATTCCTAAAACTACTTGCTACTATTCTCTCTCCAACTCGGAGTCACCTAGTGCAG | 3280 fluorescence intensity (a.u.)
8 | AGAGTTGTGGGTGTCCAATGCCACGTAATAAAAGTCCAAACGGAGTCACCTAGTGCAG | 9380 fluorescence intensity (a.u.)
9 | GGAATAACAATAGGCTTGATGTACCTGGAATTTAGCAAATCGGAGTCACCTAGTGCAG | 28000 fluorescence intensity (a.u.)
10 | CTAAAGCGTTATCCCACACGTGGATCCATCCCCACCGTCCCGGAGTCACCTAGTGCAG | 7200 fluorescence intensity (a.u.)
11 | ATAAATTTGTACCCTCCAGCTCACACTCAATGTCACCTGGCGGAGTCACCTAGTGCAG | 3480 fluorescence intensity (a.u.)
12 | GCGTTCCTTCAGGAGCATGACTCATAGACGGAACGGTGACCGGAGTCACCTAGTGCAG | 4700 fluorescence intensity (a.u.)
13 | CCCGACATGTAGATCGGGTCGTGCCGACCCAATTGACCTTCGGAGTCACCTAGTGCAG | 18200 fluorescence intensity (a.u.)
14 | CCACCCGCGCCGCCACCGACACCTCCCCTACGCCCTAGCTCGGAGTCACCTAGTGCAG | 17100 fluorescence intensity (a.u.)
15 | AAACCAATTAGTCAGACAATATATACCAGCACAAAATACACGGAGTCACCTAGTGCAG | 3220 fluorescence intensity (a.u.)
16 | AGTGTGTTTCTGCAACAGTAGTGTTCTGTTCATGGGCAACCGGAGTCACCTAGTGCAG | 21400 fluorescence intensity (a.u.)
17 | ATGACATTTGGCCATGTCATGTTTTAATTAGGTCGAGAAGCGGAGTCACCTAGTGCAG | 3560 fluorescence intensity (a.u.)
18 | GACCTGCCCGCCGCCGCCGACGTCCCCTCGGGCGGATCTGCGGAGTCACCTAGTGCAG | 3380 fluorescence intensity (a.u.)
19 | GGGCTCCCAGTATAGCTTAGGTTGATTTAATTATGGTTAACGGAGTCACCTAGTGCAG | 49500 fluorescence intensity (a.u.)
20 | CCGTTTCCAACCCGACTCCGTGGCGGTCTCTGAGCCGTCCCGGAGTCACCTAGTGCAG | 3640 fluorescence intensity (a.u.)
21 | TTAAGGCCCATTTGCTAGGCTGACGCATGGGACCCATATTCGGAGTCACCTAGTGCAG | 3880 fluorescence intensity (a.u.)
22 | GGAAAGTGTTTGTGGCCCACGTGCGGCTTGTTATTATTGGCGGAGTCACCTAGTGCAG | 3450 fluorescence intensity (a.u.)
23 | GTCTTTTCCGGTAGTGCGTGAGTAGCAAGATTGCATGACGCGGAGTCACCTAGTGCAG | 3250 fluorescence intensity (a.u.)
24 | GATAGCGAACCCTTTGGTCTTCGTCATTAGGCTTCGCTCACGGAGTCACCTAGTGCAG | 3710 fluorescence intensity (a.u.)
25 | CCCAAACAAACCGCTTCGTCGACTCGTCGCCGTCGTCGTCCGGAGTCACCTAGTGCAG | 3770 fluorescence intensity (a.u.)
26 | CTATAGCAATACTTGCGGTGCATGCTAGTGAGTAGTGACGCGGAGTCACCTAGTGCAG | 10600 fluorescence intensity (a.u.)
27 | GAGGAGTGGGAGGAAAATGAGTGGTGGGGAAAGGATAGGGCGGAGTCACCTAGTGCAG | 4150 fluorescence intensity (a.u.)

Row | Sequence | binding signal
28 | TTCCATGGCTAATTGTTCACTGTCATCAAATTGGCATTCACGGAGTCACCTAGTGCAG | 5320 fluorescence intensity (a.u.)
29 | ATTAATCAAGCAGCATCGAGATGTTGCGAGAGATCGGAATCGGAGTCACCTAGTGCAG | 37500 fluorescence intensity (a.u.)
30 | GGTGTACCCCAAGCAGGAACGCACTGCTAGCAGTTGGTAGCGGAGTCACCTAGTGCAG | 36100 fluorescence intensity (a.u.)
31 | GAGTCAAACATTTAGCTGACGCTATCTTTGACCACGCCGCCGGAGTCACCTAGTGCAG | 4420 fluorescence intensity (a.u.)
32 | CCAATGCATGCATGCACAATTGTGCGCCCCGGTCCTGCAACGGAGTCACCTAGTGCAG | 4280 fluorescence intensity (a.u.)
33 | TACGCCTCCGCTGTCACAAGCGTATTACTATCTATTACGCCGGAGTCACCTAGTGCAG | 3420 fluorescence intensity (a.u.)
34 | CCTTCCGGGCAGCGCTTGCTGACGAGACGGCGGCGGCAGGCGGAGTCACCTAGTGCAG | 5980 fluorescence intensity (a.u.)
35 | TGGTATGAATGGATAATTTGTTTCTGTCTTATGTGTTGCTCGGAGTCACCTAGTGCAG | 3150 fluorescence intensity (a.u.)
36 | ACTACCACATGATCCCAGGTCATTTTCCGTTTTCGTGTCACGGAGTCACCTAGTGCAG | 3270 fluorescence intensity (a.u.)
37 | CCGTCATCTCCGTCATCTCCGTCGTCTGCCGCAGTCACGGCGGAGTCACCTAGTGCAG | 4020 fluorescence intensity (a.u.)
38 | GGACGGCCGCGATCTCGCGGGGACCGCCGCGTGTCCCGTGCGGAGTCACCTAGTGCAG | 3500 fluorescence intensity (a.u.)
39 | TGCACCACGTTAGATCAATTTTACTTACGTGTATTGTTTTCGGAGTCACCTAGTGCAG | 6610 fluorescence intensity (a.u.)
40 | GCGGGGACGACCACGGCCTGCAGCGACCACGTCGCCTCCACGGAGTCACCTAGTGCAG | 3520 fluorescence intensity (a.u.)
41 | ACAGCTAGGCATTGCAAGGTATACGTACACGTACCAACTGCGGAGTCACCTAGTGCAG | 3540 fluorescence intensity (a.u.)
42 | TACCATATTGCTTTCGTCAGCGACGAAGGTATAGTTGTGCCGGAGTCACCTAGTGCAG | 6730 fluorescence intensity (a.u.)
43 | GCCATCGGTATCTCAATGACATGTAAATGACATGTGGATCCGGAGTCACCTAGTGCAG | 3740 fluorescence intensity (a.u.)
44 | TGCTACATTCCCAATCTATCCCATGCGCGTTGCCACGCATCGGAGTCACCTAGTGCAG | 3730 fluorescence intensity (a.u.)
45 | CCCATTAGCATTTCCGGTTTGTATGTGCGTGTTCCCCTGTCGGAGTCACCTAGTGCAG | 3770 fluorescence intensity (a.u.)
46 | GGTAGAATACGCGCGAATCAGCGCTTATGTGTACTAGTTTCGGAGTCACCTAGTGCAG | 4020 fluorescence intensity (a.u.)
47 | CAACAGCACAATCTCATTGCATGACTCACACAAAACCAATCGGAGTCACCTAGTGCAG | 7820 fluorescence intensity (a.u.)
48 | CAGATGAATCATGATGGCATTATCAGCGGTATCGAGTCGTCGGAGTCACCTAGTGCAG | 3510 fluorescence intensity (a.u.)
49 | ATCTACGACTTGAACCCAGGTAAGCAAGTTCCACCACAAGCGGAGTCACCTAGTGCAG | 3250 fluorescence intensity (a.u.)
50 | ATCGGTTAGATCGTGTCCTTTTGCTTTTGTGTTCGGTTTTCGGAGTCACCTAGTGCAG | 6940 fluorescence intensity (a.u.)
51 | GAAGTGCTGCTGCAGAAGAAGCTCGTCATCAGGCAGGCTGCGGAGTCACCTAGTGCAG | 4080 fluorescence intensity (a.u.)
52 | GGGCCAAAACAAAGCCAGCGTGCAACCCTCGACAAAGCACCGGAGTCACCTAGTGCAG | 4110 fluorescence intensity (a.u.)
53 | TAAGTAAAATTCATACTCTCTCTATCTTGGAACATGTCTACGGAGTCACCTAGTGCAG | 3230 fluorescence intensity (a.u.)
54 | GGCCTTCCCATAATGGGCCTATCTGGACAAAGCCCGCTTACGGAGTCACCTAGTGCAG | 3330 fluorescence intensity (a.u.)

Not a retest: an excerpt of the list.
Row | Sequence | binding signal
37 | CCGTCATCTCCGTCATCTCCGTCGTCTGCCGCAGTCACGGCGGAGTCACCTAGTGCAG | 4020 fluorescence intensity (a.u.)
38 | GGACGGCCGCGATCTCGCGGGGACCGCCGCGTGTCCCGTGCGGAGTCACCTAGTGCAG | 3500 fluorescence intensity (a.u.)
